The target of assay [1] is T1, super-ecliptic-pHluorin (SEP)-tagged GABAA receptor alpha2 subunit (UniProt P26048).
T1 sequence: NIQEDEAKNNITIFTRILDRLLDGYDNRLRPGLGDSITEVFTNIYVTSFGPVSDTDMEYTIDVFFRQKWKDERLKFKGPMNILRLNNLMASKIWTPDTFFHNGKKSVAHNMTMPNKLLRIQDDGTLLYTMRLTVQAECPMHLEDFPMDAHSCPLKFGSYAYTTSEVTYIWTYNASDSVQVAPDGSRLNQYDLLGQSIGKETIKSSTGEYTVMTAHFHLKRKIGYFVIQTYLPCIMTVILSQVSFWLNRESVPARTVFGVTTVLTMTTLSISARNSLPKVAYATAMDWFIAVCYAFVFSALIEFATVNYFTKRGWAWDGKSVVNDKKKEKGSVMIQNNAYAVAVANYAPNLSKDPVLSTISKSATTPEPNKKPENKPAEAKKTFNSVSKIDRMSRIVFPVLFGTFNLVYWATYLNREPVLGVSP
Nature of the assay: co-IP; lysates of co-transfected COS-7 cells; mouse LHFPL4-tGFP co-immunoprecipitated with SEP-tagged GABAAR subunits; western blot. (In general: In western blotting, separated proteins are transferred to a membrane and probed.)

Chains of the proteins cited; added tags and fusions are not shown. Residues count along the entry.
UniProt P63080, residues 26-473: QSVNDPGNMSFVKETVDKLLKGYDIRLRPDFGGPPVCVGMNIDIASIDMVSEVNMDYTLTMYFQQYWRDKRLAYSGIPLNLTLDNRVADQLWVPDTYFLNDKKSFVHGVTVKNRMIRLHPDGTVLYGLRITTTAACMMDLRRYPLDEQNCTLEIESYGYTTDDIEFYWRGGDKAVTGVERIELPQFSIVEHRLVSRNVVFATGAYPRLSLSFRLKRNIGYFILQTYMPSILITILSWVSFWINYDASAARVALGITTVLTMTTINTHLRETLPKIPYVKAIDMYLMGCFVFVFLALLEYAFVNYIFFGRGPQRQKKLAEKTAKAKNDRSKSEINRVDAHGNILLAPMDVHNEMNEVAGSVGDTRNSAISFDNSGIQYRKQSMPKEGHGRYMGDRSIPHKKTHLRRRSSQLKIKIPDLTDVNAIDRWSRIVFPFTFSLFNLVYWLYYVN
UniProt Q69ZK9, residues 15-836: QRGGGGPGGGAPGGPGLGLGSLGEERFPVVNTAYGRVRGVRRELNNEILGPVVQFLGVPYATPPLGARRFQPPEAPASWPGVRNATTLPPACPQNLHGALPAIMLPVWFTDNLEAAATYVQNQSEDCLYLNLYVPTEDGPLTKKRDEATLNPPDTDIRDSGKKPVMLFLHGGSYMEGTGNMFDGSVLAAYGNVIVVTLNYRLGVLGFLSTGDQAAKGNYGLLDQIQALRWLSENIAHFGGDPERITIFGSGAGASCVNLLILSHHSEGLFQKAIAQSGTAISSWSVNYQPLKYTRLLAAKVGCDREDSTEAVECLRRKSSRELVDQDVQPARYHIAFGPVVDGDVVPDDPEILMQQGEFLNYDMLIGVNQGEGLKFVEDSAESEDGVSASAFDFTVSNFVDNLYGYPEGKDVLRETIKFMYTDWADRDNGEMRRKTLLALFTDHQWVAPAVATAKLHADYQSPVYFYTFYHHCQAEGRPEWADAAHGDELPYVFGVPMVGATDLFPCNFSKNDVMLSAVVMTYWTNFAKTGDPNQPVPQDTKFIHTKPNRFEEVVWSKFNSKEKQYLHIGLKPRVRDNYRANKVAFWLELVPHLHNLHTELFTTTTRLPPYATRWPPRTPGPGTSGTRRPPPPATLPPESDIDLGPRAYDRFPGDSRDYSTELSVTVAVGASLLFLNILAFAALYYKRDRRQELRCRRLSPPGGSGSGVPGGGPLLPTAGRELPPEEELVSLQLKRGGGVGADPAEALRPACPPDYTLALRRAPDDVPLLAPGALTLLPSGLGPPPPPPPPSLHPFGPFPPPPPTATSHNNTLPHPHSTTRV

Assay [2] deals with super-ecliptic-pHluorin (SEP)-tagged GABAA receptor beta3 subunit (UniProt P63080). The assay is described as above.
Assay [3] concerns the target T2, super-ecliptic-pHluorin (SEP)-tagged GABAA receptor gamma2 subunit (UniProt P22723).
T2 sequence: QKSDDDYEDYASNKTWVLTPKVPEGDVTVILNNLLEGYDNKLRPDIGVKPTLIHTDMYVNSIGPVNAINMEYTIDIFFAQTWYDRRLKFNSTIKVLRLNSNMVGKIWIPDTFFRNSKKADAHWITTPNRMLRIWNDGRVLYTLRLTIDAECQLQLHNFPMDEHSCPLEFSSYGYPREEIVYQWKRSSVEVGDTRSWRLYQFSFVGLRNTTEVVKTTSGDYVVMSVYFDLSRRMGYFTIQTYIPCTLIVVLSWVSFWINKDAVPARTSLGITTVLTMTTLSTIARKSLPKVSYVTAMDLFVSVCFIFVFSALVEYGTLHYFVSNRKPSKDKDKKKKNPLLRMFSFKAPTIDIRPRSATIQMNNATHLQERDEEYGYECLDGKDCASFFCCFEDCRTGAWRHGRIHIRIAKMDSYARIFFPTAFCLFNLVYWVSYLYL
The assay is described as above.

Assay [4] has as its target neuroligin2, endogenous in mouse brain (mouse (endogenous in mouse brain)) (UniProt Q69ZK9). The assay can be described thus: co-IP; WT and Lhfpl4-/- mouse brain lysates; immunoprecipitation with an anti-NL2 antibody; western blot.
Assay [5] has as its target T3, LHFPL4 (Lipoma HMGIC Fusion Partner-Like 4), endogenous in mouse brain (mouse (endogenous in mouse brain)) (UniProt Q5U4E0).
T3 sequence: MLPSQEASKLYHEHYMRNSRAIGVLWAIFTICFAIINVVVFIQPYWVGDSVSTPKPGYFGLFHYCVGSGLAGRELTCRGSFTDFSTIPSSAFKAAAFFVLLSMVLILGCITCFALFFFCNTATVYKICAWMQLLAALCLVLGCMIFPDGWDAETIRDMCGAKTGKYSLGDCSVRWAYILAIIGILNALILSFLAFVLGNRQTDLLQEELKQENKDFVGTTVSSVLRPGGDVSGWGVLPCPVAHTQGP
The assay can be described thus: co-IP; WT and Lhfpl4-/- mouse brain lysates; immunoprecipitation with an anti-LHFPL4 antibody; western blot.

Results are given in words; binding and its absence hold for the method and conditions named. In cells and extracts the contact can be indirect. Some entries that bind do so weakly or less than the wild type. Where a sequence is shown, tags or fusion partners need not be part of it.

B1: Mouse turbo-GFP-tagged LHFPL4 (protein, UniProt Q5U4E0 1-247)
chain: T3 sequence
B1: the binding entry in assay [1], in assay [2] and in assay [3] was “binds” in each case.

B2: LHFPL4 (Lipoma HMGIC Fusion Partner-Like 4), endogenous in mouse brain (protein, UniProt Q5U4E0 1-247)
chain: T3 sequence
As for B2, the binding result in assay [4] is reported as “binds”.

B3: gephyrin, endogenous in mouse brain (protein, UniProt Q8BUV3 1-769)
chain: MATEGMILTNHDHQIRVGVLTVSDSCFRNLAEDRSGINLKDLVQDPSLLGGTISAYKIVPDEIEEIKETLIDWCDEKELNLILTTGGTGFAPRDVTPEATKEVIEREAPGMALAMLMGSLNVTPLGMLSRPVCGIRGKTLIINLPGSKKGSQECFQFILPALPHAIDLLRDAIVKVKEVHDELEDLPSPPPPLSPPPTTSPHKQTEDKGVQCEEEEEEKKDSGVASTEDSSSSHITAAALAAKIPDSIISRGVQVLPRDTASLSTTPSESPRAQATSRLSTASCPTPKQIRRPDESKGVASRVGSLKARLPSCSSTYSVSEVQSRCSSKENILRASHSAVDITKVARRHRMSPFPLTSMDKAFITVLEMTPVLGTEIINYRDGMGRVLAQDVYAKDNLPPFPASVKDGYAVRAADGPGDRFIIGESQAGEQPTQTVMPGQVMRVTTGAPIPCGADAVVQVEDTELIRESDDGTEELEVRILVQARPGQDIRPIGHDIKRGECVLAKGTHMGPSEIGLLATVGVTEVEVNKFPVVAVMSTGNELLNPEDDLLPGKIRDSNRSTLLATIQEHGYPTINLGIVGDNPDDLLNALNEGISRADVIITSGGVSMGEKDYLKQVLDIDLHAQIHFGRVFMKPGLPTTFATLDIDGVRKIIFALPGNPVSAVVTCNLFVVPALRKMQGILDPRPTIIKARLSCDVKLDPRPEYHRCILTWHHQEPLPWAQSTGNQMSSRLMSMRSANGLLMLPPKTEQYVELHKGEVVDVMVIGRL
With B3, the binding entry in assay [5] is “binds”.

The values above are taken from PMC5640807.
